Publication PMC6535076
For part of these data: Weaker means in comparison with the reference protein, sequence or condition of that experiment. For part of these data: Tags and fusion partners may be left off the protein sequences shown. Construct, isoform or probe ends are uncertain for at least one entry. For part of these data: At least one verdict was read from the data and is not stated in words by the source.

Columns and labels:
Test in all cases: photoaffinity crosslinking
[1] = target: FEN1 (human) (UniProt P39748); details: 100 nM protein, 100 nM DNA, EDTA; strand 1 3'-terminal C is FAP-dCMP; UV photo-crosslinking, 100 nM 5'-32P photoreactive DNA, EDTA present, Pol beta carried over from probe synthesis, SDS-PAGE; binding buffer; recombinant protein; label: 5'-32P on strand 1; letters put together from the description
[2] = tested on: Ku antigen (Ku70/Ku80) (human (HeLa cells)); details: 100 nM protein, 100 nM DNA, EDTA, UV photo-crosslinking, 100 nM 5'-32P photoreactive DNA, EDTA present, Pol beta carried over from probe synthesis, SDS-PAGE, binding buffer, native protein, label: 5'-32P on strand 1, letters put together from the description
[3] = target: PARP1 (human) (UniProt P09874); details: 100 nM protein, 100 nM DNA, EDTA, strand 1 3'-terminal C is FAP-dCMP, UV photo-crosslinking, 100 nM 5'-32P photoreactive DNA, EDTA present, Pol beta carried over from probe synthesis, SDS-PAGE, binding buffer, recombinant protein, label: 5'-32P on strand 1, letters put together from the description
[4] = target: DNA polymerase beta (human) (UniProt P06746); details: 200 nM protein, 100 nM DNA, EDTA, UV photo-crosslinking, 100 nM 5'-32P photoreactive DNA, EDTA present, Pol beta carried over from probe synthesis, SDS-PAGE, binding buffer, recombinant protein, label: 5'-32P on strand 1, letters put together from the description
[5] = target: T1, PARP3 (human) (UniProt Q9Y6F1); details: 300 nM protein per legend, 100 nM DNA, EDTA, considerably lower than PARP1 and PARP2; strand 1 3'-terminal C is FAP-dCMP (photoreactive exo-N-substituted dC); strand 2 carries 5'-dRP (phosphate-linked, from Ung-treated 5'-pU); UV photo-crosslinking, 100 nM 5'-32P photoreactive DNA, EDTA present, Pol beta carried over from probe synthesis, SDS-PAGE; binding buffer; recombinant protein; label: 5'-32P on strand 1; letters put together from the description
T1 sequence (looked up, limits assumed): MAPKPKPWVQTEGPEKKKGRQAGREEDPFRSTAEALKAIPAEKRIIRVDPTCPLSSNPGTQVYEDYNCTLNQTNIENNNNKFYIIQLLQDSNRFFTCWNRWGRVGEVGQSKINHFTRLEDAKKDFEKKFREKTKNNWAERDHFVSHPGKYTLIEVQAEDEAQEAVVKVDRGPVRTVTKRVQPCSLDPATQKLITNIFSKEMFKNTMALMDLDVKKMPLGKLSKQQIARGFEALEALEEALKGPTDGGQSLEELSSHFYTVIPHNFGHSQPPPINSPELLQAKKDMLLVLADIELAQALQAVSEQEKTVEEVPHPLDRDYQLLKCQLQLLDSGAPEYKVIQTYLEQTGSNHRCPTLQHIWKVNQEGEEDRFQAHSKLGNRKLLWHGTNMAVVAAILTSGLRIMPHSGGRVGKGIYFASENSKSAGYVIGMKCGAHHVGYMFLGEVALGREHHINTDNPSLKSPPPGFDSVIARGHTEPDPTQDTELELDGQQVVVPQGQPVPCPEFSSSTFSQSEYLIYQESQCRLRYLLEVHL

[6] = target: T2, HMGB1 (calf (thymus)) (UniProt P10103); details: 300 nM protein, 100 nM DNA, EDTA, UV photo-crosslinking, 100 nM 5'-32P photoreactive DNA, EDTA present, Pol beta carried over from probe synthesis, SDS-PAGE, binding buffer, native protein, label: 5'-32P on strand 1, letters put together from the description
T2 sequence (looked up, limits assumed): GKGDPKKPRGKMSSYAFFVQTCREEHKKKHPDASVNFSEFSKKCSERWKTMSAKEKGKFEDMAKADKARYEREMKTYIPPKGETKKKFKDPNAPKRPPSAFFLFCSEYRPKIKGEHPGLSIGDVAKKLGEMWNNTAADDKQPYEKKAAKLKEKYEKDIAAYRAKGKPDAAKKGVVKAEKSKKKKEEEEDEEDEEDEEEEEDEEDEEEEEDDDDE

[7] = strand 1 3'-terminal C is FAP-dCMP
[8] = strand 1 3'-terminal C is FAP-dCMP (photoreactive exo-N-substituted dC), strand 2 carries 5'-dRP (phosphate-linked, from Ung-treated 5'-pU)
[9] = strand 1 3'-terminal C is FAP-dCMP, strand 2 carries 5'-phospho-diethylene glycol phosphate (p-DEG)

GGCGACTAAGCCGGGC / GATAACAACGCCAGGGCCTCCC / GGGAGGCCCTGGCGTTGCCCGGCTTAGTCGCC [Pho-Flap]
binding result [1]: binds | binding result [2, 7]: binds | binding result ([3]; lowest intensity of the three DNAs): binds more weakly | binding result [4, 7]: binds

GGCGACTAAGCCGGGC / AACGCCAGGGCCTCCC / GGGAGGCCCTGGCGTTGCCCGGCTTAGTCGCC [Pho-dRP]
binding result [5]: binds more weakly | binding result [2, 8]: binds | binding result [6, 8]: binds more weakly | binding result [4, 8]: binds

GGCGACTAAGCCGGGC / AACGCCAGGGCCTCCC / GGGAGGCCCTGGCGTTGCCCGGCTTAGTCGCC [Pho-pDEG]
binding result [2, 9]: binds | binding result ([3]; strand 2 carries 5'-phospho-diethylene glycol phosphate (p-DEG)): binds | binding result [6, 9]: binds more weakly | binding result [4, 9]: binds
